These are yes or no findings as the source states them, for the method shown. Binding seen in cells or lysates may run through a third protein. Some binding calls cover weakened binding; strength is not graded here. For some of these results: Tags and fused reporters may be left off the sequences shown.
Key:
Assay in all cases: co-IP
[1] = target: T1, Flag-tagged TANK-binding kinase 1 (TBK1) (UniProt Q9UHD2)
T1 sequence: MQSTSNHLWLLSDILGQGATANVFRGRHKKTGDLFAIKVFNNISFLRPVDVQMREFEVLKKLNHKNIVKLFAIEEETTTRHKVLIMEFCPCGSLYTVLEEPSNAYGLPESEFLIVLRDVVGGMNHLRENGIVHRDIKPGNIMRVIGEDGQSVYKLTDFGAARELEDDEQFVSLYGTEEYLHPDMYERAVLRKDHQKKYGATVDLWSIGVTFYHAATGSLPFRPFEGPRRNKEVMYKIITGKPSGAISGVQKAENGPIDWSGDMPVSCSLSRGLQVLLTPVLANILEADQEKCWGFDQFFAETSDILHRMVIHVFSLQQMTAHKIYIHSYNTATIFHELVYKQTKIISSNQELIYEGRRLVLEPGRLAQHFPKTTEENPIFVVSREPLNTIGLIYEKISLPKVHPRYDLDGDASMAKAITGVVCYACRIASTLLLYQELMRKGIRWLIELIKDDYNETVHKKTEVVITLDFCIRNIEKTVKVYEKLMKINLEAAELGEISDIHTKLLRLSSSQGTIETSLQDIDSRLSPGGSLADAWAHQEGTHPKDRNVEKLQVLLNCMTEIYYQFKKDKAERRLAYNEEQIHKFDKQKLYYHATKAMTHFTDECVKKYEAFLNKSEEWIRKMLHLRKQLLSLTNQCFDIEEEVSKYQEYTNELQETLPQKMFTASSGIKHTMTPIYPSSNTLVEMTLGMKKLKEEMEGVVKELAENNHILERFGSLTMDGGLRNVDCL

[2] = target: T2, Myc-tagged ubiquitin-specific protease 15 (USP15) (UniProt Q9Y4E8)
T2 sequence: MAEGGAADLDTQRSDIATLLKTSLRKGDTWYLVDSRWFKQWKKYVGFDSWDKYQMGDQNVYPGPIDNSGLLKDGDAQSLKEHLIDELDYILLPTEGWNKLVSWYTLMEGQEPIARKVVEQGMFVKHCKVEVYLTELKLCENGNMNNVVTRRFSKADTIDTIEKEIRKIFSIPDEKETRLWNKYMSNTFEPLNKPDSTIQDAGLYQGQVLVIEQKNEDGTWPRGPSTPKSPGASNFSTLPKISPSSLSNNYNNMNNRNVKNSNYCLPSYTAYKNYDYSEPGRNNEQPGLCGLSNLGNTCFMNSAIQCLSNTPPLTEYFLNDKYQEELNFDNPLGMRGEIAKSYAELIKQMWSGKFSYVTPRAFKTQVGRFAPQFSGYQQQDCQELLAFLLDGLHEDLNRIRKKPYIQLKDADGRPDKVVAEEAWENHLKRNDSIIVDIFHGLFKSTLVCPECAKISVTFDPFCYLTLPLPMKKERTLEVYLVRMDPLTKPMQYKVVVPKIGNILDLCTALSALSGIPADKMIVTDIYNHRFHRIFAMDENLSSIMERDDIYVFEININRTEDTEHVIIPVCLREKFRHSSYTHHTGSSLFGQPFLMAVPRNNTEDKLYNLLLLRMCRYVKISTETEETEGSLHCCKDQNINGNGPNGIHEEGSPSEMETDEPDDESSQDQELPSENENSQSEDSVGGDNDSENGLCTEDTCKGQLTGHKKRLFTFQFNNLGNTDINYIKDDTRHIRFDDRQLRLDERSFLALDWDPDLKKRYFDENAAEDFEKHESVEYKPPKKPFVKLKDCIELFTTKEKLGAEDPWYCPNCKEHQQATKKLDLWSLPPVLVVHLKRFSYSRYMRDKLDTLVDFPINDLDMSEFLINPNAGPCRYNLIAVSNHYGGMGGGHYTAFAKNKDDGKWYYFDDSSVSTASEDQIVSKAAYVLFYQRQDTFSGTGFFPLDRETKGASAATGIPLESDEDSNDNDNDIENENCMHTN

[3] = target: T3, TANK-binding kinase 1 (TBK1), endogenous in mouse macrophages (mouse (endogenous in BMDMs)) (UniProt Q9WUN2)
T3 sequence: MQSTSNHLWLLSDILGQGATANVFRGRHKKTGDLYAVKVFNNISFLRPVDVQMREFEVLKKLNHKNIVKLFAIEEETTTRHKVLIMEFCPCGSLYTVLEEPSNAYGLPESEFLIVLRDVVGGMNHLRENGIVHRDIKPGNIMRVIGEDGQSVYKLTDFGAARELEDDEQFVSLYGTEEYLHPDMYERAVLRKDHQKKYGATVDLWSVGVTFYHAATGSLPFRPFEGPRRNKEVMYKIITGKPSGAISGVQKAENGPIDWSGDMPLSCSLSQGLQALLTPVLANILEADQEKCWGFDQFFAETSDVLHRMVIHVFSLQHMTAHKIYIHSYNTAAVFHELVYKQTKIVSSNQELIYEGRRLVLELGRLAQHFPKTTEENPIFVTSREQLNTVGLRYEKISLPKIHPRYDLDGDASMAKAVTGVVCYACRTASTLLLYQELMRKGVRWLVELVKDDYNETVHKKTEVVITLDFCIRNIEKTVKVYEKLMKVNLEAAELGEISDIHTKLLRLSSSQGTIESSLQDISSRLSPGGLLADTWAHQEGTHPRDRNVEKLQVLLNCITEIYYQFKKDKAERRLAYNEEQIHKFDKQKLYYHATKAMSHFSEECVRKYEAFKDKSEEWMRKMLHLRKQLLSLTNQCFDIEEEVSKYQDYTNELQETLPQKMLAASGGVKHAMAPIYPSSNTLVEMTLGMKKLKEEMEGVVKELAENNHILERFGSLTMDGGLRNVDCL

[4] = target: T4, Flag-tagged TANK-binding kinase 1 (TBK1), Q9UHD2; conditions: remark: other sources report otherwise
T4 chain: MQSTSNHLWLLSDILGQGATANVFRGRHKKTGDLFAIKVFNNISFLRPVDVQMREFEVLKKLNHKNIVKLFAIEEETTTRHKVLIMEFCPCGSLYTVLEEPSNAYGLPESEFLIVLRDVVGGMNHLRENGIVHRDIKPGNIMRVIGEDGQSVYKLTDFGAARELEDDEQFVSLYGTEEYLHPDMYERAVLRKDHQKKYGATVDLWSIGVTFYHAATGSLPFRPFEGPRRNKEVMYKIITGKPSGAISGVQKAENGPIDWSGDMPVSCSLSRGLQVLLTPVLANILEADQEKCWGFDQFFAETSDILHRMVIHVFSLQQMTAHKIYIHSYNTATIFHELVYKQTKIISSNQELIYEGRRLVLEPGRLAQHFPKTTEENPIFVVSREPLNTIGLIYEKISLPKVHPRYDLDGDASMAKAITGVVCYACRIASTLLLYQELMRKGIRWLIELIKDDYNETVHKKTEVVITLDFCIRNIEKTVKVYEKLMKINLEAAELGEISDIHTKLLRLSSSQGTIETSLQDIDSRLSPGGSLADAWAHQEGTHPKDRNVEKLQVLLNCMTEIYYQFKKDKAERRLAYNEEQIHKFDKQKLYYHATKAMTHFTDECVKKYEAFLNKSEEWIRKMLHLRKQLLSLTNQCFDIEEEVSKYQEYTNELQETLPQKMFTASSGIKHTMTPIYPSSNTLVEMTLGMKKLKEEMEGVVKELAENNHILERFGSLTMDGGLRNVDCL

B1: V5-tagged scavenger receptor A (SRA) (receptor, UniProt P21757 1-451)
chain: MEQWDHFHNQQEDTDSCSESVKFDARSMTALLPPNPKNSPSLQEKLKSFKAALIALYLLVFAVLIPLIGIVAAQLLKWETKNCSVSSTNANDITQSLTGKGNDSEEEMRFQEVFMEHMSNMEKRIQHILDMEANLMDTEHFQNFSMTTDQRFNDILLQLSTLFSSVQGHGNAIDEISKSLISLNTTLLDLQLNIENLNGKIQENTFKQQEEISKLEERVYNVSAEIMAMKEEQVHLEQEIKGEVKVLNNITNDLRLKDWEHSQTLRNITLIQGPPGPPGEKGDRGPTGESGPRGFPGPIGPPGLKGDRGAIGFPGSRGLPGYAGRPGNSGPKGQKGEKGSGNTLTPFTKVRLVGGSGPHEGRVEILHSGQWGTICDDRWEVRVGQVVCRSLGYPGVQAVHKAAHFGQGTGPIWLNEVFCFGRESSIEECKIRQWGTRACSHSEDAGVTCTL
binding [1]: binds
binding [2]: binds

B2: scavenger receptor A (SRA), endogenous in mouse macrophages (receptor, UniProt P30204 1-458)
chain: MTKEMTENQRLCPHEQEDADCSSESVKFDARSMTASLPHSTKNGPSLQEKLKSFKAALIALYLLVFAVLIPVVGIVTAQLLNWEMKNCLVCSLNTSDTSQGPMEKENTSKVEMRFTIIMEHMKDMEERIESISNSKADLIDTERFQNFSMATDQRLNDILLQLNSLISSVQEHGNSLDAISKSLQSLNMTLLDVQLHTETLNVRVRESTAKQQEDISKLEERVYKVSAEVQSVKEEQAHVEQEVKQEVRVLNNITNDLRLKDWEHSQTLKNITFIQGPPGPQGEKGDRGLTGQTGPPGAPGIRGIPGVKGDRGQIGFPGGRGNPGAPGKPGRSGSPGPKGQKGEKGSVGGSTPLKTVRLVGGSGAHEGRVEIFHQGQWGTICDDRWDIRAGQVVCRSLGYQEVLAVHKRAHFGQGTGPIWLNEVMCFGRESSIENCKINQWGVLSCSHSEDAGVTCTS
binding [3]: binds

B3: Myc-tagged ubiquitin-specific protease 15 (USP15), Q9Y4E8 1-981 (enzyme)
chain: MAEGGAADLDTQRSDIATLLKTSLRKGDTWYLVDSRWFKQWKKYVGFDSWDKYQMGDQNVYPGPIDNSGLLKDGDAQSLKEHLIDELDYILLPTEGWNKLVSWYTLMEGQEPIARKVVEQGMFVKHCKVEVYLTELKLCENGNMNNVVTRRFSKADTIDTIEKEIRKIFSIPDEKETRLWNKYMSNTFEPLNKPDSTIQDAGLYQGQVLVIEQKNEDGTWPRGPSTPKSPGASNFSTLPKISPSSLSNNYNNMNNRNVKNSNYCLPSYTAYKNYDYSEPGRNNEQPGLCGLSNLGNTCFMNSAIQCLSNTPPLTEYFLNDKYQEELNFDNPLGMRGEIAKSYAELIKQMWSGKFSYVTPRAFKTQVGRFAPQFSGYQQQDCQELLAFLLDGLHEDLNRIRKKPYIQLKDADGRPDKVVAEEAWENHLKRNDSIIVDIFHGLFKSTLVCPECAKISVTFDPFCYLTLPLPMKKERTLEVYLVRMDPLTKPMQYKVVVPKIGNILDLCTALSALSGIPADKMIVTDIYNHRFHRIFAMDENLSSIMERDDIYVFEININRTEDTEHVIIPVCLREKFRHSSYTHHTGSSLFGQPFLMAVPRNNTEDKLYNLLLLRMCRYVKISTETEETEGSLHCCKDQNINGNGPNGIHEEGSPSEMETDEPDDESSQDQELPSENENSQSEDSVGGDNDSENGLCTEDTCKGQLTGHKKRLFTFQFNNLGNTDINYIKDDTRHIRFDDRQLRLDERSFLALDWDPDLKKRYFDENAAEDFEKHESVEYKPPKKPFVKLKDCIELFTTKEKLGAEDPWYCPNCKEHQQATKKLDLWSLPPVLVVHLKRFSYSRYMRDKLDTLVDFPINDLDMSEFLINPNAGPCRYNLIAVSNHYGGMGGGHYTAFAKNKDDGKWYYFDDSSVSTASEDQIVSKAAYVLFYQRQDTFSGTGFFPLDRETKGASAATGIPLESDEDSNDNDNDIENENCMHTN
binding [4]: binds
